First the molecules themselves.
B1: IgG1-AXL-733 (antibody, V domains shown)
VH: QVQLVESGGGVVQPGRSLRLSCAASGFSFSTYAMHWVRQAPGKGLEWVAVISYDGDNKYSADSVKGRFTISRDNSKNTLYLQMNSLRAEDTAVYYCARGRKLGIDAFDIWGQGTMVTVSS
VL: AIQLTQSPSSLSASVGDRVTITCRASQGISSALAWYQQKPGKAPKLLIYDASSLESGVPSRFSGSGSGTDFTLTISGLQPEDFATYYCQQFNSYPFTFGPGTKVDIK
B2: IgG1-AXL-183 (antibody, V domains shown)
VH: QVQLQQWGAGLLKPSETLSLTCAVYGGSFSGYYWSWIRQPPGKGLEWIGEINQSGSTNYNPSLKSRVTISVDTSKNQFSLKLSSVTAADTSVYYCASGNWDHFFDYWGQGTLVTVSS
VL: DIQMTQSPSSVSASVGDRVTITCRASQGISSWLAWYQHKPGKAPKLLIYATSSLQSGVTSRFSGSGSGTDFTLTISSLQPEDFATYYCQQAKSFPWTFGQGTKVEIK
B3: IgG1-AXL-183-N52Q (antibody, V domains shown)
VH: B2 VH with N52Q
VL: B2 VL
B4: IgG1-AXL-148 (antibody, V domains shown)
VH: EVQLLESGGGLVQPGGSLRLSCAASGFTFSSYAMTWVRQAPGKGLEWVSAISISGGSTFYADSVKGRFTISRDNSKNTLYLQMNSLRAEDTAVYYCRGYSGYVYDAFDFWGQGTMVTVSS
VL: DIQMTQSPSSLSASVGDRVTITCRASQGISNWLAWYQQKPEKAPKSLIYAASSLQSGVPSRFSGSGSGTDFTLTISSLQPEDFATYYCQQYNSYPLTFGGGTKVEIK

Numbering of substitutions follows the chain as printed. Numbers in names are those of the source. Results are given in words; binding and its absence hold for the method and conditions named. A result given as binding can be weak or reduced; the word gives no strength.

One assay addresses human AXL with a cynomolgus monkey extracellular domain (ECD) (cynomolgus monkey (Macaca fascicularis); human (Homo sapiens)). In words: flow cytometry, HEK293T cells transfected with human AXL with cynomolgus ECD.
With B1, the binding result is “binds”.
On the same count and under the same terms, with B2 the entry was “binds”; with B3, “binds”.
Take B4: the binding result is recorded as “binds”.

The target of the next assay is Homo sapiens AXL-Mus musculus Ig1 domain (p33-AXL-mIg1) (human-mouse chimera). Put plainly: flow cytometry, 1 µg/mL antibody, HEK293F cells expressing hsAxl-mmIg1 (human AXL with the mouse Ig1 domain), PE-anti-human IgG. (In general: A flow cytometer gives signals particle by particle.)
Consider B1, for which the binding entry is “binds”.
For B2, the binding result was “binds”.
For B4, the binding result is given as “binds”.
